Measurements taken from article PMC5356543.
These are yes or no findings as the source states them, for the method shown. For some assays here: Binding seen in cells or lysates may run through a third protein. Some entries that bind do so weakly or less than the wild type.

Amino acid sequences for entries named in this document (tags omitted). A change or cut given only in a name is not applied to a line headed by its entry. Residues count along the entry.
UniProt P02452: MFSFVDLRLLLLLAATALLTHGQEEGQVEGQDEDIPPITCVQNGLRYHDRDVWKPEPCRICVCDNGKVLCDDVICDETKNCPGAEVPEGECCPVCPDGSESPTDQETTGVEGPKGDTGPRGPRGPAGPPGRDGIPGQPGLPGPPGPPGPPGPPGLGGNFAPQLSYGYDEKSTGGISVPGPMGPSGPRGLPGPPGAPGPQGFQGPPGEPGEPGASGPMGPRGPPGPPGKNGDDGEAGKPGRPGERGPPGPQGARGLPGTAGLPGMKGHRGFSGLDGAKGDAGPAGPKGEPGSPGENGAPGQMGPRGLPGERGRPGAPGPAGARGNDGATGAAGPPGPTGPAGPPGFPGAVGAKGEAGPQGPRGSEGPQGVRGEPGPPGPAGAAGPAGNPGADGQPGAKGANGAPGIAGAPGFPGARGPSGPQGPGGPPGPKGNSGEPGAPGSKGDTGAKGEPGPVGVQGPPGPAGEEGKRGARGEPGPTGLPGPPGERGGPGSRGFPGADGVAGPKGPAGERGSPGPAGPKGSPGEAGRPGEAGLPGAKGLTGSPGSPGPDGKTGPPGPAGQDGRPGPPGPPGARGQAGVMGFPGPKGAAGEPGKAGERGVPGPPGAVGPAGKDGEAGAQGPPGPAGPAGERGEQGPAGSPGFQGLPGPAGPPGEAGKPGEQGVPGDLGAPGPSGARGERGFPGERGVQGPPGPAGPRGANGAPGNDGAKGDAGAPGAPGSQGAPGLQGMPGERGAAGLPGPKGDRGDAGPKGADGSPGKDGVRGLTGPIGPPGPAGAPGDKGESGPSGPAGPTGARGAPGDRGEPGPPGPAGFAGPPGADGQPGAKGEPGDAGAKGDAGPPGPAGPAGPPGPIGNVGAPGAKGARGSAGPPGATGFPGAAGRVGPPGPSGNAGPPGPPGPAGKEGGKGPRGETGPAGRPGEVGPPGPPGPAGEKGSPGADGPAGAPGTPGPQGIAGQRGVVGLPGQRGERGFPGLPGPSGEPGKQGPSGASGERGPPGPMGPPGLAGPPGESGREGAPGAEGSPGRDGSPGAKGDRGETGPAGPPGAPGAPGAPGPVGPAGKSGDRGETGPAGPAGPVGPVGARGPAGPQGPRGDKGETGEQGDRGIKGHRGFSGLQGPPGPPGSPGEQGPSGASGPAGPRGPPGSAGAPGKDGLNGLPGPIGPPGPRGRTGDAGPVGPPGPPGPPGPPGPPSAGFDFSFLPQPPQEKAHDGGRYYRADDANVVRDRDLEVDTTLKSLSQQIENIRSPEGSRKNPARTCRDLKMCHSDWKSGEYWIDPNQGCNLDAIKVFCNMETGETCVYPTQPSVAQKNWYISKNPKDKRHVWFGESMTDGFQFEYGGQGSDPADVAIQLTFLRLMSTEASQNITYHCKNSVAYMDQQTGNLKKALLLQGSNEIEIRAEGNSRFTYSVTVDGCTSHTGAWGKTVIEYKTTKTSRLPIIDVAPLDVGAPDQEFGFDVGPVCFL
UniProt P08123: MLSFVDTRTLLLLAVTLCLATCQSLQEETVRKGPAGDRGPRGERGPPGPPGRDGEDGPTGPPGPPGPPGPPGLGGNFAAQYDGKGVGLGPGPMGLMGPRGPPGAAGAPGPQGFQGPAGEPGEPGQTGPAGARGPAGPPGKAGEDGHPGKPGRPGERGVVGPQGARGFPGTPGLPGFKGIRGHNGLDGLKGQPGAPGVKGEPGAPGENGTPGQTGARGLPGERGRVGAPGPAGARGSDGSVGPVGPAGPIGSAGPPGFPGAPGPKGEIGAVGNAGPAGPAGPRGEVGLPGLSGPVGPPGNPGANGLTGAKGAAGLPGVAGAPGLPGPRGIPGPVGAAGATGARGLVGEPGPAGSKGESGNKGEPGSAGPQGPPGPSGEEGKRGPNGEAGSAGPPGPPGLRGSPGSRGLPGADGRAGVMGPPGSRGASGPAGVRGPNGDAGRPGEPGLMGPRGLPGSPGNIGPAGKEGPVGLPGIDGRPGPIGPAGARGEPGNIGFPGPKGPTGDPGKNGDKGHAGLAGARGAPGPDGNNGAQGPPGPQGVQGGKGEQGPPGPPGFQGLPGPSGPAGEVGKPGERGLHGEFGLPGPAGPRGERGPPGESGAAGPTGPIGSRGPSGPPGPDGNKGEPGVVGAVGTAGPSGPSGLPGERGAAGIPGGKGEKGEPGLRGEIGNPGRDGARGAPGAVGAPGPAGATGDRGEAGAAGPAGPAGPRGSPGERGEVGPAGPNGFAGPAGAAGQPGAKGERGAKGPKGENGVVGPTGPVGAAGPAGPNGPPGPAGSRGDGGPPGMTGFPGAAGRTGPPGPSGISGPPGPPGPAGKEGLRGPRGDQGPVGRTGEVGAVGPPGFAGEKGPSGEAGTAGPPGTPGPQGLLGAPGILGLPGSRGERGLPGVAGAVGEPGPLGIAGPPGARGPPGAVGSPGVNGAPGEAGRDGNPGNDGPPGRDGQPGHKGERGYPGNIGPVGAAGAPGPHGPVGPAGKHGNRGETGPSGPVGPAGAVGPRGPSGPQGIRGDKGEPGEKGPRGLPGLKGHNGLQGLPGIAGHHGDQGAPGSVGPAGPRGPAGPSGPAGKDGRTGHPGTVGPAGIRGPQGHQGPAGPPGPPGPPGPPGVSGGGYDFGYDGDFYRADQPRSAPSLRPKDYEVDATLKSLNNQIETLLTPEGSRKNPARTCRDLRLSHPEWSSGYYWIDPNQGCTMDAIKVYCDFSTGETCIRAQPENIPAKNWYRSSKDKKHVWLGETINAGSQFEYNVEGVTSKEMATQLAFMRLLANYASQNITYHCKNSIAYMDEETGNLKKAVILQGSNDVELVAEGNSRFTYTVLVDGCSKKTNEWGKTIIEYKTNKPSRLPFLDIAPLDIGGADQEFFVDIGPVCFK
UniProt P11276, residues 33-2477: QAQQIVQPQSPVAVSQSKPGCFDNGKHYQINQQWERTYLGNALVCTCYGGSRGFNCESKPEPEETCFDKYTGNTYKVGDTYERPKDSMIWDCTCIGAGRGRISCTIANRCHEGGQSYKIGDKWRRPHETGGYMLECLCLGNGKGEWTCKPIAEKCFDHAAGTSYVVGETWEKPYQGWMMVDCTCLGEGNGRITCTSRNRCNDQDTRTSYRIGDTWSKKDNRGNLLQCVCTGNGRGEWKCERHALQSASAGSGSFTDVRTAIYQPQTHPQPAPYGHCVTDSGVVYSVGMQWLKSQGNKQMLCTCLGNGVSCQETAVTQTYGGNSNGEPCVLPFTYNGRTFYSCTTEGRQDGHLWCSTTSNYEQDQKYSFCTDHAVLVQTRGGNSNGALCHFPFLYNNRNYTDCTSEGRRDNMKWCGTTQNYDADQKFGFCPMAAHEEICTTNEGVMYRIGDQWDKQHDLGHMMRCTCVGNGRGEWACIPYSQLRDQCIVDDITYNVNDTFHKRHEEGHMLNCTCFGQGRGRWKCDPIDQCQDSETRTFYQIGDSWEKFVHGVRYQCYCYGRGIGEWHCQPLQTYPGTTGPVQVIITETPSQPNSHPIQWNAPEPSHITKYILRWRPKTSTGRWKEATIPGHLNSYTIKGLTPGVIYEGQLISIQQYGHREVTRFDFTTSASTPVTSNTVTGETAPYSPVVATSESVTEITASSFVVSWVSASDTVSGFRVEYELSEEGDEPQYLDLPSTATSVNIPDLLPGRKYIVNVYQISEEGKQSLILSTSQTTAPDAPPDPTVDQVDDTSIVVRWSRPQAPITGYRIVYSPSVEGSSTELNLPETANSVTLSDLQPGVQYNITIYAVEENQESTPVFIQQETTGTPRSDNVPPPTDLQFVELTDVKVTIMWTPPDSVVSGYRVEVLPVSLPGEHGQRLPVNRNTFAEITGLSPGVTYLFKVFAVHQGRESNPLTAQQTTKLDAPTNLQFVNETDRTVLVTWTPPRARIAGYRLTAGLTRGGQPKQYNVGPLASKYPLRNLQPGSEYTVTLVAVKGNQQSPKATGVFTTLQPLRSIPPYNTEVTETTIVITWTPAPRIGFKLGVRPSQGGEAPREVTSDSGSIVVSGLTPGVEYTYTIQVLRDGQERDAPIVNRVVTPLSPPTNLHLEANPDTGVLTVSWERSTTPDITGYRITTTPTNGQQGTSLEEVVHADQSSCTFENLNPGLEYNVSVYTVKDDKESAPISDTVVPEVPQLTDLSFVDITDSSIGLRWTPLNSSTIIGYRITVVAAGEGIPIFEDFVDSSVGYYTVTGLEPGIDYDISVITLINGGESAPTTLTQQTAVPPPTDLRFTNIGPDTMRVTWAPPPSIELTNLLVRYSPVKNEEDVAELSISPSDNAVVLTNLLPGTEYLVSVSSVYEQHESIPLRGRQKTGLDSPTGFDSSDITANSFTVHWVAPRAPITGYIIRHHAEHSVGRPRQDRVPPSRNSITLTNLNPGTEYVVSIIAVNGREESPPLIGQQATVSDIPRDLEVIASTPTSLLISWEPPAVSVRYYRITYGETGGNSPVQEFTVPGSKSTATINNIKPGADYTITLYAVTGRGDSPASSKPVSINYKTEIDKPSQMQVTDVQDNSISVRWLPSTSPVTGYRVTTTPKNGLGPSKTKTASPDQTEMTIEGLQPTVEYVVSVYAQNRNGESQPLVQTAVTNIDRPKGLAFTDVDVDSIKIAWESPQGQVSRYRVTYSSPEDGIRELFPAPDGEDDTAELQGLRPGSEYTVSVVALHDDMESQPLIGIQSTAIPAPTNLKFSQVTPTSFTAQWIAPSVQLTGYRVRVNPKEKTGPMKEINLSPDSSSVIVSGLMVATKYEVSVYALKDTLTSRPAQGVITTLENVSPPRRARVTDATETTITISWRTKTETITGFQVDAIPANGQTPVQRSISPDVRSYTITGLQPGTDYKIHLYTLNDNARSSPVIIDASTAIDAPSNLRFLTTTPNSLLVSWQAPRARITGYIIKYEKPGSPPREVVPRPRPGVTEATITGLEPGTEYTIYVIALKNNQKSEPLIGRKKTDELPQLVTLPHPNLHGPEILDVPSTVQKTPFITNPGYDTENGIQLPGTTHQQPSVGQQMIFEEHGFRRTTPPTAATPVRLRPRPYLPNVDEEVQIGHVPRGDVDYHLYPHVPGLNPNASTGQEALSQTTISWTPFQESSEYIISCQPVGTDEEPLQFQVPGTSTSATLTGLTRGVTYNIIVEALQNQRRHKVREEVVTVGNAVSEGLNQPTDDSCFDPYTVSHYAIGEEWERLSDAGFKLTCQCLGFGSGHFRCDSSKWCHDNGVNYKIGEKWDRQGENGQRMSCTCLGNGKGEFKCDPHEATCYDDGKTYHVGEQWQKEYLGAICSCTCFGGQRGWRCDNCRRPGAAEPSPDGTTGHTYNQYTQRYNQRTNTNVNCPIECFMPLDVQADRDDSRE
UniProt P07204, residues 19-173: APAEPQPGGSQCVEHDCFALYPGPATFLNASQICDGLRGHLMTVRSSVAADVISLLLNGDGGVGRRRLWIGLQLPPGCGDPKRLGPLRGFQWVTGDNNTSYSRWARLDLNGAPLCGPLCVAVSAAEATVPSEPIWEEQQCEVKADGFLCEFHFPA
UniProt P15306, residues 17-577: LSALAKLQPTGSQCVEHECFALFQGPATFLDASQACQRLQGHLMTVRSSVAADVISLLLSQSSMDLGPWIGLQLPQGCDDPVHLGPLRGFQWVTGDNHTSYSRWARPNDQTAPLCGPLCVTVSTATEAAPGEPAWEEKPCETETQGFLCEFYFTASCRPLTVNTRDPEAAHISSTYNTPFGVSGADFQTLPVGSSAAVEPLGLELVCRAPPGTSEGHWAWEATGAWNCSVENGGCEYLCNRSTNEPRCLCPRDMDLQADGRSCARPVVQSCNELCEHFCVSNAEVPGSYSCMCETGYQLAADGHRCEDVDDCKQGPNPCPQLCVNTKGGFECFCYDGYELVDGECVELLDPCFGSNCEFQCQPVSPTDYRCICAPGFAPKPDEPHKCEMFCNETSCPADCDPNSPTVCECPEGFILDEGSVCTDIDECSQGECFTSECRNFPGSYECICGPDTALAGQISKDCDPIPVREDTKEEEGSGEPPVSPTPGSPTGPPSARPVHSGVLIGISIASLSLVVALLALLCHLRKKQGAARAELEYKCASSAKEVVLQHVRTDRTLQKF

Columns and labels:
[1] = molecular target: human placenta collagen type I (human) (UniProt P02452+P08123); assay: ELISA; solid-phase binding assay: ECM proteins (10 μg/mL) coated on Maxisorp wells in carbonate buffer (pH 9.6) overnight at 4°C, blocked with 1% BSA; increasing concentrations of rTMD1 in PBS with 0.1% BSA, overnight at 4°C; bound rTMD1 detected with an anti-His antibody; both purified
[2] = molecular target: fibronectin on tumor blood vessels of mice (mouse (endogenous in B16F10 tumors grown in C57BL/6 mice)) (UniProt P11276); assay: proximity ligation; Duolink In Situ on acetone-fixed frozen sections of B16F10 tumors from C57BL/6 mice; rabbit anti-mouse TM lectin-like domain and goat anti-fibronectin (sc-6952) primary antibodies

binding [1] | binding [2] | Substance
binds weakly | – | recombinant TM lectin-like domain (rTMD1) (from UniProt P07204 19-173) (domain or fragment)
– | binds | thrombomodulin (TM) on tumor blood vessels of mice (from UniProt P15306 17-577)
